Test results as given in the supplement of paper PMC5770031.
The list shows a part of the results. Single values are uncertain here, since repeats match poorly.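 ATM8/balancer (normal ATM) heterozygous flies were crossed on treated food; parents laid eggs 5–6 days, offspring developed ~12 days, so parents and larvae ingested compound. Readout: fraction of emerged adults homozygous for ATM8 versus 2% DMSO controls. Compounds were neutral at 10–20% homozygotes, harmful below 10%, helpful above 20%.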

System: Drosophila melanogaster ATM8 (temperature-sensitive ATM allele)
Assay: fraction of eclosed F1 progeny that are homozygous ATM8 (rescue of developmental lethality); higher = more rescue of ATM8 developmental lethality; extreme values may be limits of the assay
Settings: compound concentration applied to food 0.2 mM; 21 °C

Structure (SMILES)	fraction of eclosed F1 progeny that are homozygous ATM8
CC(C)CC(NC(=O)[C@H](C)N)C(=O)O (mixture of isomers)	0.0769
NC[C@H](O)c1ccc(O)c(O)c1	0.13
CCN(CC)CCNC(=O)c1ccc(N)cc1	0.191
O[C@H]1[C@H](O)[C@@H](O)C2OC[C@H]1O2	0.0244
CCCCCCOc1ccccc1C(N)=O	0.075
CC(=O)c1cc2ccccc2oc1=O	0.0943
O=c1cc[nH]c(=O)[nH]1	0.0227
C=CCN1CC[C@]23c4c5ccc(O)c4O[C@H]2C(=O)CC[C@@]3(O)[C@H]1C5	0.103
COc1ccc(-c2cc(=O)c3c(OC)c(OC)c(OC)c(OC)c3o2)cc1OC	0.104
CC/C=C\C/C=C\C/C=C\C/C=C\C/C=C\C/C=C\CCC(=O)O	0.177
CCCCC(CC)COc1ccc(-c2nc(-c3ccc(OC)cc3)nc(-c3ccc(OCC(CC)CCCC)cc3O)n2)c(O)c1 (stereo not drawn)	0.286
CCC[C@@H]1C[C@@H](C(=O)N[C@@H]([C@H]2O[C@H](SC)[C@H](O)[C@@H](O)[C@H]2O)[C@@H](C)O)N(C)C1	0
C=C1C(N)CC2CC1C2(C)C (stereo not drawn) [3-AMINO-beta-PINENE]	0.0833
CC(C)=CCc1c(O)cc2oc(C)cc(=O)c2c1O	0.075
CN1C(C(=O)Nc2ccccn2)=C(O)c2sc(Cl)cc2S1(=O)=O	0.0909
CC12CC3CC(C)(C1)CC(N)(C3)C2	0.0333
COc1ccc(-c2cc(=O)c3c(OC)c(OC)c(OC)c(OC)c3o2)cc1	0
O=c1n(Cl)c(=O)n(Cl)c(=O)n1Cl	0.254
CS(C)(=O)=O	0.25
Nc1ccc(S(=O)(=O)O)cc1.Nc1ccc(S(=O)(=O)O)cc1.[Zn]	0.0909
CCOc1ccc(Cc2nccc3cc(OCC)c(OCC)cc23)cc1OCC	0.102
O=C(Nc1ccc([N+](=O)[O-])cc1Cl)c1cc(Cl)ccc1O	0.127
CCCCc1oc2ccccc2c1C(=O)c1cc(I)c(OCCN(CC)CC)c(I)c1	0.235
O=C(O)c1cccnc1	0.152

Random excerpt: 2 records from the list, in no set order.
Structure (SMILES)	fraction of eclosed F1 progeny that are homozygous ATM8
C=C1C(N)CC2CC1C2(C)C (stereo not drawn) [3-AMINO-beta-PINENE]	0.0833
CC(C)CC(NC(=O)[C@H](C)N)C(=O)O (mixture of isomers)	0.0769

Continued.

Structure (SMILES)	fraction of eclosed F1 progeny that are homozygous ATM8
N[C@@H](COP(=O)(O)O)C(=O)O	0.154
Cc1cccc(N(C)C(=S)Oc2ccc3ccccc3c2)c1	0.0816
O=c1cccc2ccc(O)c(O)c2c1O	0.179
O=c1[nH]c(=O)n([C@H]2C[C@H](O)[C@@H](CO)O2)cc1I	0.0556
COc1ccc(-c2ccc3cc(C(=O)O)ccc3c2)cc1C12CC3CC(CC(C3)C1)C2	0.0968
CNC1CC(N)C(O)C(OC2OC(CO)C(O)C3OC4(OC(C(N)CO)C(O)C(O)C4O)OC23)C1O (stereo not drawn)	0.244
CCCC(C)C1(CC)C(=O)NC(=O)NC1=O (stereo not drawn)	0.281
C=CCc1ccc2c(c1)OCO2	0.238
O=C(O)c1cc2cc(F)ccc2[nH]1	0.171
NNC(=O)c1ccncc1	0.0789
CC1(C)CC2C1CCC1(C)OC1CCC2(C)O (stereo not drawn)	0.0694
CC1(C)O[C@@H]2C[C@H]3[C@@H]4C[C@H](F)C5=CC(=O)CC[C@]5(C)[C@H]4[C@@H](O)C[C@]3(C)[C@]2(C(=O)CO)O1	0.136
CCC(=O)OCC(=O)[C@@]1(OC(=O)CC)[C@@H](C)C[C@H]2[C@@H]3CCC4=CC(=O)C=C[C@]4(C)[C@@]3(F)[C@@H](O)C[C@@]21C	0.0308
CC1=CCc2c(cc3oc(C)cc(=O)c3c2O)OC1	0.093
O[n+]1ccccc1S.O[n+]1ccccc1S.[Zn+2]	0
CC(=O)OCC(=O)[C@@]1(O)CC[C@H]2[C@@H]3CCC4=CC(=O)C=C[C@]4(C)[C@H]3[C@@H](O)C[C@@]21C	0.237
C[C@]12CCC(=O)C=C1CC[C@@H]1[C@@H]2[C@@H](O)C[C@@]2(C)[C@H]1CC[C@]2(O)C(=O)COP(=O)(O)O	0.194
Cc1c(Nc2ncccc2C(=O)O)cccc1C(F)(F)F	0.219
CC[C@H](c1ccc(O)cc1)[C@@H](CC)c1ccc(O)cc1	0.264
O=C(Cc1ccccc1)NO	0.0488
COc1ccc(-c2cc(=O)c3c(OC)cc(OC)cc3o2)cc1	0.149
O=C(O)CCCCCCCC(O)C(O)CCCCCCO (stereo not drawn)	0.143
COc1ccc2c(=O)cc(-c3ccccc3OC)oc2c1	0.0323
COC(=O)[C@@]1(C)CCC[C@]2(C)c3ccc(O)c(C(C)C)c3CCC12 (stereo partly drawn)	0.476

Structure (SMILES)	fraction of eclosed F1 progeny that are homozygous ATM8
CC1(C)O[C@@H]2C[C@H]3[C@@H]4C[C@H](F)C5=CC(=O)C=C[C@]5(C)[C@H]4[C@@H](O)C[C@]3(C)[C@]2(C(=O)CO)O1	0.154
C[C@H](CS)C(=O)N1CCC[C@H]1C(=O)O	0.214
S=C=NCc1ccccc1	0.212
CN(Cc1cc(Br)cc(Br)c1N)C1CCCCC1	0.0833
CC(=O)/C(=C\c1ccccc1)CC(=O)O	0.0732
C[C@]12CCC(=O)C=C1C=C[C@@H]1[C@@H]2CC[C@@]2(C)[C@H]1CC[C@@]2(O)CCC(=O)O	0.0714
CC(C)NCC(O)COc1cccc2[nH]ccc12 (stereo not drawn)	0.0769
CC(C)=CCC[C@@H](C)[C@@H]1CC[C@]2(C)C3=C(CC[C@@]12C)[C@@]1(C)CC[C@H](O)C(C)(C)[C@@H]1CC3	0.0909
COC(=O)[C@H]1[C@H]2C[C@H]3c4[nH]c5ccccc5c4CCN3C[C@H]2CC[C@@H]1O	0.093
C=C(C)[C@@H]1CC[C@]2(C)CC[C@]3(C)[C@H](CC[C@@H]4[C@@]5(C)CC[C@H](OC(C)=O)C(C)(C)[C@@H]5CC[C@]43C)[C@@H]12	0.0323
CC(CN(C)C)CN1c2ccccc2CCc2ccccc21 (stereo not drawn)	0.177
C[C@H]1[C@H]2CC[C@H]3[C@@H]4CC=C5C[C@@H](N(C)C)CC[C@]5(C)[C@H]4CC[C@]23CN1C	0.207
CC1=C(/C=C/C(C)=C/C=C/C(C)=C/C=C/C=C(C)/C=C/C=C(C)/C=C/C(=O)[C@]2(C)C[C@@H](O)CC2(C)C)C(C)(C)C[C@H](O)C1	0.269
C[N+](C)(C)C[C@H](O)CC(=O)[O-]	0.19
Cc1cccc(C)c1NC(=O)CN1CCCC1=O	0.08
C=CC1=C(C)/C(=C/c2[nH]c(Cc3[nH]c(/C=C4\NC(=O)C(C)=C4C=C)c(C)c3CCC(=O)O)c(CCC(=O)O)c2C)NC1=O	0
C=CC[N+]1([C@H]2C[C@H]3[C@@H]4CC[C@H]5C[C@H](O)[C@@H](N6CCOCC6)C[C@]5(C)[C@H]4CC[C@]3(C)[C@H]2OC(C)=O)CCCC1	0.109
CO[C@H]1[C@H](O)[C@H](O[C@H]2CC[C@@]3(C=O)[C@H](CC[C@@H]4[C@@H]3CC[C@]3(C)[C@@H](C5=CC(=O)OC5)CC[C@]43O)C2)O[C@@H](C)[C@@H]1O	0.189
CC(C)(C)NC(=O)[C@H]1CC[C@H]2[C@@H]3CC[C@H]4NC(=O)C=C[C@]4(C)[C@H]3CC[C@]12C	0.069
CC(C)=CCCC1(C)C=Cc2c(O)c3c(c(CC=C(C)C)c2O1)OC12C(=CCCC1C(C)(C)O[C@@]2(C/C=C(\C)C(=O)O)C(=O)O)C3=O (stereo partly drawn)	0.0976
C=C1CC[C@H](O)C/C1=C/C=C1\CCC[C@]2(C)[C@@H]([C@H](C)/C=C/[C@H](C)C(C)C)CC[C@@H]12	0.0312
Nc1nc(N)c2nc(-c3ccccc3)c(N)nc2n1	0.087
CC(=O)O[C@@H]1[C@H]2CC[C@H]3[C@@](C)(O)[C@@H]4C[C@H](O)C(C)(C)[C@@]4(O)[C@H](O)C[C@@]13C[C@@]2(C)O	0.182
C=C1C(=O)O[C@H]2[C@H]1CC/C(C)=C/CC[C@@]1(C)O[C@@H]21	0.111

Exported field by field: part of the list above.
O=C(Nc1ccc([N+](=O)[O-])cc1Cl)c1cc(Cl)ccc1O
  fraction of eclosed F1 progeny that are homozygous ATM8: 0.127
O=C(Cc1ccccc1)NO
  fraction of eclosed F1 progeny that are homozygous ATM8: 0.0488
CC(C)=CCCC1(C)C=Cc2c(O)c3c(c(CC=C(C)C)c2O1)OC12C(=CCCC1C(C)(C)O[C@@]2(C/C=C(\C)C(=O)O)C(=O)O)C3=O (stereo partly drawn)
  fraction of eclosed F1 progeny that are homozygous ATM8: 0.0976

(next part)

Structure (SMILES)	fraction of eclosed F1 progeny that are homozygous ATM8
COc1cccc(O)c1O	0
CCCCOc1ccc(C(=O)CCN2CCCCC2)cc1	0.0238
C[C@H](CC(=O)[C@@H]1OC1(C)C)[C@H]1C(=O)C[C@@]2(C)C3=CC[C@H]4C(C)(C)[C@@H](O[C@@H]5OC[C@@H](O)[C@H](O)[C@H]5O)CC[C@@]45C[C@@]35[C@@H](O)C[C@]12C	0.0667
COc1ccc(CCC(=O)c2c(O)cc(O[C@@H]3O[C@H](CO)[C@@H](O)[C@H](O)[C@H]3O[C@@H]3O[C@@H](C)[C@H](O)[C@@H](O)[C@H]3O)cc2O)cc1O	0.233
Cn1nnc2c(C(N)=O)ncn2c1=O	0.0571
CC[C@@H](C(=O)[C@@H](C)[C@@H](O)[C@H](C)[C@@H]1O[C@@H]([C@@H](CC)C(=O)O)CC[C@@H]1C)[C@H]1O[C@]2(C=C[C@@H](O)[C@]3(CC[C@@](C)([C@H]4CC[C@](O)(CC)[C@H](C)O4)O3)O2)[C@H](C)C[C@@H]1C	0.2
CN1[C@@H]2CC[C@H]1C[C@@H](OC(=O)C(O)c1ccccc1)C2 (stereo partly drawn)	0.25
Nc1ccc(/N=N/c2ccccc2)c(N)n1	0.0882
C[C@H](N[C@@H](CCc1ccccc1)C(=O)O)C(=O)N1Cc2ccccc2C[C@H]1C(=O)O	0.0392
CCc1cc(Cl)c(OC)c(C(=O)NC[C@@H]2CCCN2CC)c1O	0.0811
CN(C)CCOC(=O)C(c1ccccc1)C1(O)CCCC1 (stereo not drawn)	0
O=C(/C=C/c1ccccc1)c1ccc(O)cc1	0.151
O=C(O)c1ccc2c(c1)OCO2	0.214
O=c1ccc2cc(O[C@@H]3O[C@H](CO)[C@@H](O)[C@H](O)[C@H]3O)c(O)cc2o1	0.163
CCC(=O)O[C@]1(C(=O)SCF)[C@H](C)C[C@H]2[C@@H]3C[C@H](F)C4=CC(=O)C=C[C@]4(C)[C@@]3(F)[C@@H](O)C[C@@]21C	0.132
NCCCS(=O)(=O)O	0.156
Cc1c(S(=O)(=O)O)oc2c1C(=O)C(=O)c1c-2ccc2c1CCCC2(C)C	0.0833
Nc1nc(/C(=C/CC(=O)O)C(=O)N[C@@H]2C(=O)N3C(C(=O)O)=CCS[C@H]23)cs1	0.04
O=C1c2ccccc2-c2cccc3cccc1c23	0.0962
C[C@@H]1CC[C@@]2(OC1)O[C@H]1C[C@H]3[C@@H]4CC=C5C[C@@H](O)CC[C@]5(C)[C@H]4CC[C@]3(C)[C@H]1[C@@H]2C	0.3
Nc1ccc(C(=O)O)c(O)c1	0.132
